The target in the assay is T1, Kita-Kyushu lung cancer antigen-1 (KK-LC-1) (human (endogenous in MDA-MB-231 and MDA-MB-468)) (UniProt Q5H943).
T1 sequence: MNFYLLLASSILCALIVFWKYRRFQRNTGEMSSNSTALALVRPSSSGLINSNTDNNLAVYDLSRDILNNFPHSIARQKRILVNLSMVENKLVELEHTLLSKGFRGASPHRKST
Kind of assay: co-IP; endogenous proteins; whole-cell lysates of MDA-MB-231 and MDA-MB-468 cells in RIPA buffer, primary antibody overnight at 4 °C, protein A/G sepharose beads 2 h at 4 °C, 3 washes with RIPA, immunoblot; also after treatment of the cells with 5 µM Z8 or DMSO (Z8 dramatically decreased the co-immunoprecipitation).

Chains of the proteins cited; added tags and fusions are not shown. Residues count along the entry.
UniProt Q14517, residues 22-4588: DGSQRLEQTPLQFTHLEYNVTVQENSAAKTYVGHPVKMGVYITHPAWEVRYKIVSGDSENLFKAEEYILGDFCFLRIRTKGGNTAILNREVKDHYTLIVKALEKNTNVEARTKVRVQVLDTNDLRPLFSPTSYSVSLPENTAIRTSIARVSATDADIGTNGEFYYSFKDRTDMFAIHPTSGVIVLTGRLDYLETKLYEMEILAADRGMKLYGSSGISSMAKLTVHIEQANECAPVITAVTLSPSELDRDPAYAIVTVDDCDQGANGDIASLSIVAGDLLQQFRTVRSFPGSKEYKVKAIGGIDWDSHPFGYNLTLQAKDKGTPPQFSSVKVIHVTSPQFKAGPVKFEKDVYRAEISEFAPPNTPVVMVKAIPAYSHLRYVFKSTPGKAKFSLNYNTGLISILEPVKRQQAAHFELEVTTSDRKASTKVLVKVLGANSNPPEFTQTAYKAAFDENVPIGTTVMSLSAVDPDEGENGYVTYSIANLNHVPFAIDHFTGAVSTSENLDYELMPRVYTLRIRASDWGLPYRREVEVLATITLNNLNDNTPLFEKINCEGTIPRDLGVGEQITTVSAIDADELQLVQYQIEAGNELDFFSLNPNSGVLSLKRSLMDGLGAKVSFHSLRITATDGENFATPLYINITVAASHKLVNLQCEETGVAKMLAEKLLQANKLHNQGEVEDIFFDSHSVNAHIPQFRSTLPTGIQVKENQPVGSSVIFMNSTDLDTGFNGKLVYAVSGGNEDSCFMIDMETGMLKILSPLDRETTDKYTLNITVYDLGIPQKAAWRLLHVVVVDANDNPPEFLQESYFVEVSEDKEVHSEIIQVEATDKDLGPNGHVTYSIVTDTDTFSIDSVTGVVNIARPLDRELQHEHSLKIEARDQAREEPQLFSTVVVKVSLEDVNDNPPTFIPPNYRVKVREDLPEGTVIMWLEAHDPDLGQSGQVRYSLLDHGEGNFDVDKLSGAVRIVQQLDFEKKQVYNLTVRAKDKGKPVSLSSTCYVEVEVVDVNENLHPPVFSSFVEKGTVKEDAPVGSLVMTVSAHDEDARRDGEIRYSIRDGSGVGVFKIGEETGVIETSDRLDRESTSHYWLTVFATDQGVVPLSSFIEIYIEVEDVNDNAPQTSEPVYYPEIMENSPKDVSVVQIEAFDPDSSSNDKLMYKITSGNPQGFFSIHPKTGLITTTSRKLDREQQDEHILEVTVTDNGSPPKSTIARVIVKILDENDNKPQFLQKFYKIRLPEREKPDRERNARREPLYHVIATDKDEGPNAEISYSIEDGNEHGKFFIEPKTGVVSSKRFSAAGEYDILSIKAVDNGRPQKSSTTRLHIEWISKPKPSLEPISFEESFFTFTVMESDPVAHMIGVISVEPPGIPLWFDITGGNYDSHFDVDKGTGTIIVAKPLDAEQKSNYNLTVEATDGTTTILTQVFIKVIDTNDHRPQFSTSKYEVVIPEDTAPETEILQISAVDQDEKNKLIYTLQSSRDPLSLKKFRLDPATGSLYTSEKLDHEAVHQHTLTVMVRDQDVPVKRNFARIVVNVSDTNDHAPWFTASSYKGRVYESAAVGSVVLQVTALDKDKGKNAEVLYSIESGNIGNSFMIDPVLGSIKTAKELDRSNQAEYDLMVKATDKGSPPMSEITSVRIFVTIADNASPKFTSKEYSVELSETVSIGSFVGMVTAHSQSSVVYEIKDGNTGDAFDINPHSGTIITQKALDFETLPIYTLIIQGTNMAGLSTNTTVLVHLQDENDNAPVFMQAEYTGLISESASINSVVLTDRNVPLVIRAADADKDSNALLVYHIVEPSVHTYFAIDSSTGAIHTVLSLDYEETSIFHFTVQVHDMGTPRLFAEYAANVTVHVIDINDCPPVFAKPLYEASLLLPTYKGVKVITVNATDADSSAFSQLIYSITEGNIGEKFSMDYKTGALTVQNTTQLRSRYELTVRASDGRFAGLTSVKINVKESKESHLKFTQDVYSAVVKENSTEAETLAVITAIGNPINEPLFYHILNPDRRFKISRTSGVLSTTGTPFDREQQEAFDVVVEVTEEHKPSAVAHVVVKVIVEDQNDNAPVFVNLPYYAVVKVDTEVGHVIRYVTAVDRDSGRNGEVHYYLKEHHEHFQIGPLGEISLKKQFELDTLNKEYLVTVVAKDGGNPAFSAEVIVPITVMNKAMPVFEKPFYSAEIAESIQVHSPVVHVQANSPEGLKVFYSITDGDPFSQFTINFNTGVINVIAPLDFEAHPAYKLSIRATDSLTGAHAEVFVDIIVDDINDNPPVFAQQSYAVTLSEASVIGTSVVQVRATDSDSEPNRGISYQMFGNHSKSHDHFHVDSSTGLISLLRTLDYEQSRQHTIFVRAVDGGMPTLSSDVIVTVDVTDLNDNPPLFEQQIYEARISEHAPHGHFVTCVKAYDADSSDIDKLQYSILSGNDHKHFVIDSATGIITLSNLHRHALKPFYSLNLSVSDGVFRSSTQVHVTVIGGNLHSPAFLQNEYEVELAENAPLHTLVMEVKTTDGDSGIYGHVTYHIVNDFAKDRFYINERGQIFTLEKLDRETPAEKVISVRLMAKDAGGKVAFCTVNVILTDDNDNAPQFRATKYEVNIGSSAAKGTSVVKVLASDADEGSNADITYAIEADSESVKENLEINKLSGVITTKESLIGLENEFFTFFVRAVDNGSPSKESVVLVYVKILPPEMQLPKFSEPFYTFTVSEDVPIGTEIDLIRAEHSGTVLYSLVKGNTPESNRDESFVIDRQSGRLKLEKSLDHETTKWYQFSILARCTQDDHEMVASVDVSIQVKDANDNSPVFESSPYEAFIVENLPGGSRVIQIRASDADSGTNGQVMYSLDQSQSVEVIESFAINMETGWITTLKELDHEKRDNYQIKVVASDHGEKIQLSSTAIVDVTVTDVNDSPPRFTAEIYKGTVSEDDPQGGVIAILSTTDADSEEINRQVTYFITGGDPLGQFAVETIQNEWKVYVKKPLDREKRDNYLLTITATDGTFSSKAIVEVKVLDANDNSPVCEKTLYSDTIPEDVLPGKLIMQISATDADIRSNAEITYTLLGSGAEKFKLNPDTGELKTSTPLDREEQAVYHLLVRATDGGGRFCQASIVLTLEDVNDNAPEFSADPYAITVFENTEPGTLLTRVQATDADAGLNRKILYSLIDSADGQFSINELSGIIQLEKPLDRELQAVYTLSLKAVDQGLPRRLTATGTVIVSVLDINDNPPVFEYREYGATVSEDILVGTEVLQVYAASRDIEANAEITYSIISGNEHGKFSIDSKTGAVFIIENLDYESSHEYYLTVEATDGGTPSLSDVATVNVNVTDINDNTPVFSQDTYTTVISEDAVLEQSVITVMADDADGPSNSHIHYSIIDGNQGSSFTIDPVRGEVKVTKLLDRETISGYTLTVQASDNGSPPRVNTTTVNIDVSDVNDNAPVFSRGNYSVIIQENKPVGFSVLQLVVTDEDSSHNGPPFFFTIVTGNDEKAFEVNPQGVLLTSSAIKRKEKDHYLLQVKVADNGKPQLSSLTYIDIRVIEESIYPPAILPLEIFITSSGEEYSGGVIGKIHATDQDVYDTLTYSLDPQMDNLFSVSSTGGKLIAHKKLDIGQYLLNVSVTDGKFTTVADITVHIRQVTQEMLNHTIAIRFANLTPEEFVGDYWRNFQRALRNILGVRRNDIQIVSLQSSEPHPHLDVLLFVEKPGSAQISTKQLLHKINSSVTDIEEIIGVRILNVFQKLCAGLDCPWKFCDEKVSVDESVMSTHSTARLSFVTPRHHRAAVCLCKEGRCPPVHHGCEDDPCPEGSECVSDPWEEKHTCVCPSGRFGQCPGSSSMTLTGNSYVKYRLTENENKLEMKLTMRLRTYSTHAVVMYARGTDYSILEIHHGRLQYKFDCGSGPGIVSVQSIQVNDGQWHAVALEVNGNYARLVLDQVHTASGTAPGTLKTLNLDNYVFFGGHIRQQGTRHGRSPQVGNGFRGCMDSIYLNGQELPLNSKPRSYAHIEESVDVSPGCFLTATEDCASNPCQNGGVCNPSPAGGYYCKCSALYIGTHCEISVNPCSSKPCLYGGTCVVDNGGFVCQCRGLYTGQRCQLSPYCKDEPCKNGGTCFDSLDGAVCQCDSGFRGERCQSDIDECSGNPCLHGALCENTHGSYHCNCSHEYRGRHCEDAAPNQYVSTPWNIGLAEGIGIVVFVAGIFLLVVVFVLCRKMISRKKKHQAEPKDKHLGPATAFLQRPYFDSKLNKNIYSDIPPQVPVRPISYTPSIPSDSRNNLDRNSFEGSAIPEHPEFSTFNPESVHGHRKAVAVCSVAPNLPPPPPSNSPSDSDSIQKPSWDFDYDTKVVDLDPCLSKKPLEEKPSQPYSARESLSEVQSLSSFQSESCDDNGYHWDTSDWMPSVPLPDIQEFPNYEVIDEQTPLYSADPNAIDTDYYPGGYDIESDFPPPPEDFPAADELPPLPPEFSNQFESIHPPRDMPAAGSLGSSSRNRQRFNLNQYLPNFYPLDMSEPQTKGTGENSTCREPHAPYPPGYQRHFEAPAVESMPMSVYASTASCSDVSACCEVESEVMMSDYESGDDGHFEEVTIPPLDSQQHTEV

These are yes or no findings as the source states them, for the method shown. Binding seen in cells or lysates may run through a third protein. Some binding calls cover weakened binding; strength is not graded here.

Regarding FAT1 (from UniProt Q14517 22-4588), the binding result is given as “binds”.

Source of the values: publication PMC10163259, “KK-LC-1 as a therapeutic target to eliminate ALDH^+ stem cells in triple negative breast cancer” (Nature Communications, 2023).
